Measurements from paper PMC8454973.
No constants are given. Whether binding was seen depends on the method and setting. In cells and extracts the contact can be indirect. Binding can be weak; no strength is given. Tags and fused reporters may be left off the sequences shown.

Target: eukaryotic initiation factor 4G (eIF4G), endogenous (human (endogenous in Huh-7 and HEK 293T))
Test: co-IP

binding: binds
B1: human RNA-binding protein Mex3A with C-terminal HA tag (hMex3A-HA) (protein, UniProt A1L020 1-520)
chain: MPSLVVSGIMERNGGFGELGCFGGSAKDRGLLEDERALQLALDQLCLLGLGEPPAPTAGEDGGGGGGGAPAQPAAPPQPAPPPPPAAPPAAPTAAPAAQTPQPPTAPKGASDAKLCALYKEAELRLKGSSNTTECVPVPTSEHVAEIVGRQGCKIKALRAKTNTYIKTPVRGEEPVFMVTGRREDVATARREIISAAEHFSMIRASRNKSGAAFGVAPALPGQVTIRVRVPYRVVGLVVGPKGATIKRIQQQTNTYIITPSRDRDPVFEITGAPGNVERAREEIETHIAVRTGKILEYNNENDFLAGSPDAAIDSRYSDAWRVHQPGCKPLSTFRQNSLGCIGECGVDSGFEAPRLGEQGGDFGYGGYLFPGYGVGKQDVYYGVAETSPPLWAGQENATPTSVLFSSASSSSSSSAKARAGPPGAHRSPATSAGPELAGLPRRPPGEPLQGFSKLGGGGLRSPGGGRDCMVCFESEVTAALVPCGHNLFCMECAVRICERTDPECPVCHITATQAIRIFS
